Measured values published in patent EP0556962A1 (RICHTER GEDEON VEGYESZETI GYAR R.T., priority 1992, dated 1993).
Strings that start with PEPTIDE1 are HELM notation: dots part the residues, brackets hold end groups and non-standard residues.

Experiment: general procedure: solution-phase peptide synthesis; pentafluorophenyl active esters (Boc-/Z-amino acid-OPfp), triethylamine

Substance | step yield (coupling step) [%] | step yield (late stage modification step, 2HCl) [%]
Boc-D-Trp-Phe-D-Trp-Leu ψ-(CH₂NH)Leu-NH₂ | 90 | 
Boc-Phe-D-Trp-Leu ψ(CH₂NH)Leu-NH₂ | 82 | 
H-D-Trp-Phe-D-Trp-Leu ψ(CH₂NH)Leu-NH₂·2HCl |  | 92
PEPTIDE1{[pHOPA].[dW].F.[dW].[LeuPsiCH2NHLeu].[am]}$$$$V2.0 | 85 | 
